Entries after “also recorded” stand apart in the source; their conditions may differ. Not every detail of the peptide structures is certain; ends, links or a residue may be inferred. Ends that are not written are not given here.
Key:
CCD-966SK cells = experiment: Transwell migration assay, CCD-966SK fibroblasts; type: cell-based, Human; details: 50 μg/ml peptide in lower chamber, 24-hour culture, serum-free DMEM, P<0.01
HaCaT cells = experiment: Transwell migration assay, HaCaT keratinocytes; type: cell-based, Human; details: 50 μg/ml peptide in lower chamber, 24-hour culture, serum-free DMEM, P<0.05

HTSTEAK [Peptide NO. 9, HisThrSerThrGluAlaLys]
CCD966SK fibroblast cell migration (CCD-966SK cells): significant efficacy in enhancing HaCaT CCD966SK fibroblast cell migration; also recorded: enhanced CCD966SK fibroblast cell migration | HaCaT keratinocyte cell migration (HaCaT cells): effect in enhancement of keratinocyte cell migration of HaCaT cells | HaCaT keratinocyte cell migration (HaCaT cells; listed as Peptide NO.9): significant efficacy in enhancing HaCaT keratinocyte cell migration
